Reference: patent publication US20260043816A1
No constants are given. Whether binding was seen depends on the method and setting. Some entries that bind do so weakly or less than the wild type.

Tests used:
[1] = target: endogenous TDP-43 in human blood samples (EDTA plasma; platelet fractions) (human) (UniProt Q13148); experiment: SIMOA sandwich immunoassay, capture antibody on paramagnetic beads
[2] = target: recombinant full length TDP-43 (SEQ ID NO: 1, FL TDP-43) (human) (UniProt Q13148); experiment: SIMOA sandwich immunoassay: ACI-7071-809F12-Ab1-rec2 on paramagnetic beads as capture, biotinylated ACI-7071-4665-B5-R3B-Ab2 as detector, human TDP-43 calibrator titrated

- binding [1]: binds
- binding [2]: binds
B1: ACI-7071-809F12-Ab1-rec2 (as described in WO2020234473) (antibody, V domains shown)
VH: QVQLKESGPGLVAPSQSLSITCTVSGFSLNRNGVQWVRQPPGKGLEWLGVIWPGGSTNCNSALMSRLSISKDNSKSQVFLKMNSLHTDDTGIYYCARVGGNYVWDYNNYAWGQGTLVTVSA
VL: DVLMTQTPLSLPVSLGDQASISCRSSQNIVHSIGNTYLEWYLQKPGQSPKLLIYKVSNRFSGVPDRFSGSGSGTDFTLKISRVEAEDLGVYYCFQGSHVPYTFGGGTKLEIR
